In the supplement of paper PMC8732350:
Values joined by “and” are separate entries in the source; they are usually repeats but may differ in a detail not shown here. Equal values may be shown once. Where a name gives a salt, the structure may show the parent alone. ± gives the standard deviation of the averaged measurements. Some of the results follow. This data set is noisy: repeats of one test often differ as much as different tests do.

These molecules were tested on A549 (assay: surface PD-L1 immunofluorescence intensity relative to IFN-gamma-only control (ratio); higher = more PD-L1 expression). Conditions: 10 µM; exposure time 24 h; IFN-gamma 100 ng/mL.

Structure (SMILES)	surface PD-L1 immunofluorescence intensity
CC(=O)OCC(=O)[C@@]1(O)CC[C@H]2[C@@H]3CCC4=CC(=O)CC[C@]4(C)[C@H]3C(=O)C[C@@]21C [Cortisone acetate (Cortone)]	0.999
CC(=O)OCC(=O)[C@@]1(O)CC[C@H]2[C@@H]3CCC4=CC(=O)C=C[C@]4(C)[C@@]3(F)[C@@H](O)C[C@@]21C [Isoflupredone acetate]	0.761
CN1CCN(c2cccc(Nc3nc4c(-c5ccc(S(C)(=O)=O)cc5)cccn4n3)c2)CC1	0.732 ± 0.035
COc1cc2nc(N3CCN(C(=O)C4CCCO4)CC3)nc(N)c2cc1OC (stereo not given) [Terazosin hydrochloride]	1.05 ± 0.048
CC(C)(O)CC[C@@H](O)[C@](C)(O)[C@H]1CC[C@@]2(O)C3=CC(=O)[C@@H]4C[C@@H](O)[C@@H](O)C[C@]4(C)[C@H]3CC[C@]12C [20-Hydroxyecdysone]	1.01
Nc1ccc(S(=O)(=O)Nc2ccc(Cl)nn2)cc1 [Sulfachloropyridazine]	1.09
Cc1ccc(/C=N/NC(=O)c2ccccc2Oc2ccccc2)o1	1.03 and 1.06
C[C@H](NC(=O)[C@@H]1CCCN1C(=O)[C@@H]1CCCN1C(=O)[C@@H](O)[C@H](N)Cc1ccccc1)C(N)=O [Apstatin]	1.01
COc1cc(C)c(/C=C/C(C)=C/C=C/C(C)=C/C(=O)O)c(C)c1C [Acitretin]	1.03 ± 0.08
CC(C)(F)C[C@H](N[C@@H](c1ccc(-c2ccc(S(C)(=O)=O)cc2)cc1)C(F)(F)F)C(=O)NC1(C#N)CC1 [Odanacatib (MK 0822)]	1.02
NS(=O)(=O)c1cc2c(cc1Cl)NCNS2(=O)=O [Hydrochlorothiazide]	0.87
O=C(NC1CCOCC1)c1ccc(-c2cc(-c3c[nH]nc3-c3ccccn3)ccn2)cc1	1
O=C1C(=O)N(Cc2ccc(Cl)c(Cl)c2)c2ccccc21 [Apoptosis Activator 2]	0.976
COc1cc(/C=C/C(=O)O)ccc1O [Fumalic acid (Ferulic acid)]	1.07
C[N+]1(C)CCC(=C(c2ccccc2)c2ccccc2)CC1 [Diphemanil methylsulfate]	0.85
CN(C)CCc1c[nH]c2ccc(C[C@H]3COC(=O)N3)cc12 [Zolmitriptan (Zomig)]	0.859
CN(C)CCC=C1c2ccccc2C=Cc2ccccc21 [Cyclobenzaprine hydrochloride]	0.909
O=C1c2cccc(O)c2C(=O)c2c(O)cc(CO)cc21 [Aloe-emodin]	1.09
CC(C)CC(NC(=O)OCC1c2ccccc2-c2ccccc21)C(=O)O (stereo not given)	1.05
CNNCc1ccc(C(=O)NC(C)C)cc1 [Procarbazine hydrochloride]	0.99
NC(=O)c1ncn([C@@H]2O[C@H](CO)[C@@H](O)[C@H]2O)c1N [Acadesine]	1.04 ± 0.03
CC1=C(/C=C/C(C)=C/C=C/C(C)=C/C(=O)Nc2ccc(O)cc2)C(C)(C)CCC1 [Fenretinide]	1.23

Taken from above:
Entry of CC1=C(/C=C/C(C)=C/C=C/C(C)=C/C(=O)Nc2ccc(O)cc2)C(C)(C)CCC1 [Fenretinide] under surface PD-L1 immunofluorescence intensity: 1.23
Entry of NC(=O)c1ncn([C@@H]2O[C@H](CO)[C@@H](O)[C@H]2O)c1N [Acadesine] under surface PD-L1 immunofluorescence intensity: 1.04 ± 0.03
Entry of CC(C)(F)C[C@H](N[C@@H](c1ccc(-c2ccc(S(C)(=O)=O)cc2)cc1)C(F)(F)F)C(=O)NC1(C#N)CC1 [Odanacatib (MK 0822)] under surface PD-L1 immunofluorescence intensity: 1.02

Continued.

Structure (SMILES)	surface PD-L1 immunofluorescence intensity
CC(=O)Oc1cc(C(C)C)c(OCCN(C)C)cc1C [Moxisylyte hydrochoride]	0.815
CC(c1cc2ccccc2s1)N(O)C(N)=O (stereo not given) [Zileuton]	0.974
C[C@@H]1C(=O)O[C@H]2C[C@@]34[C@H]5C[C@@H](C(C)(C)C)[C@]36[C@@H](OC(=O)[C@@H]6O)O[C@@]4(C(=O)O5)[C@]21O [Ginkgolide A]	1.18
CC[N+](C)(CC)CC(=O)Nc1c(C)cccc1C [N-Methyllidocaine iodide]	1.14
CC[C@@H]1Cn2c(c3nc(-c4ccccc4)nc-3n(C)c2=O)N1	1.03
CCOC(=O)c1c(C)[nH]c2ccc3c(c12)CN1CCc2cc(OC)ccc2C1O3 (stereo not given)	0.927
C[C@@H]1CN(c2c(F)c(N)c3c(=O)c(C(=O)O)cn(C4CC4)c3c2F)C[C@H](C)N1 [Sparfloxacin]	0.948
CCn1cc(C(=O)O)c(=O)c2cc(F)c(N3CCN(C)CC3)cc21 [Pefloxacine]	0.92
CC#CCOC(=O)c1c(C)nc2sc3c(c2c1N)CCC(O)C3 (stereo not given)	1.08
NC(=O)c1ccncc1 [Isonicotinamide]	0.957
CCn1cc(C(=O)O)c(=O)c2cc(F)c(N3CCNC(C)C3)c(F)c21 (stereo not given) [Lomefloxacin hydrochloride]	0.875
CS(=O)(=O)Nc1ccc([N+](=O)[O-])cc1Oc1ccccc1 [Nimesulide]	0.949 ± 0.027
COc1cc(C)nc(-n2nc(C)cc2OC)n1 [Epirizole]	0.893
O=C(O)C1=CCNCC1 [Isoguvacine hydrochloride]	1.09
CCn1c(=O)[nH]c2ccccc21	1.12
CC1(C)[C@@H](O[C@H]2O[C@H](C(=O)O)[C@@H](O)[C@H](O)[C@H]2O[C@@H]2O[C@H](C(=O)O)[C@@H](O)[C@H](O)[C@H]2O)CC[C@]2(C)[C@H]3C(=O)C=C4[C@@H]5C[C@@](C)(C(=O)O)CC[C@]5(C)CC[C@@]4(C)[C@]3(C)CC[C@@H]12 [Ammonium Glycyrrhizinate (AMGZ)]	0.929
CC1(C)[C@@H](O[C@H]2O[C@H](C(=O)O)[C@@H](O)[C@H](O)[C@H]2O[C@@H]2O[C@H](C(=O)O)[C@@H](O)[C@H](O)[C@H]2O)CC[C@]2(C)[C@H]3C(=O)C=C4[C@@H]5C[C@@](C)(C(=O)O)CC[C@]5(C)CC[C@@]4(C)[C@]3(C)CC[C@@H]12 [Glycyrrhizic acid]	0.996
CCOC(=O)CCC(=O)O[C@H]1[C@H](O[C@@H]2[C@@H](C)[C@H](O[C@H]3C[C@@](C)(OC)[C@@H](O)[C@H](C)O3)[C@@H](C)C(=O)O[C@H](CC)[C@@](C)(O)[C@H](O)[C@@H](C)C(=O)[C@H](C)C[C@@]2(C)O)O[C@H](C)C[C@@H]1N(C)C [Erythromycin Ethylsuccinate]	0.957
COc1cc(NC(=O)c2ccc(-c3ccc(Cl)cc3)o2)cc(OC)c1	0.993
Nc1ncnc2nc(-c3ccc(N4CCOCC4)nc3)cc(-c3cccc(Br)c3)c12 [ABT 702 dihydrochloride]	0.985
C[C@]12C=CC(=O)C=C1CC[C@@H]1[C@@H]2C(=O)C[C@@]2(C)[C@H]1CC[C@]2(O)C(=O)CO [Prednisone (Adasone)]	1.04
C[C@]12C=CC(=O)C=C1CC[C@@H]1[C@@H]2C(=O)C[C@@]2(C)[C@H]1CC[C@]2(O)C(=O)CO [Prednisone]	0.85

Structure (SMILES)	surface PD-L1 immunofluorescence intensity
C=CCn1c(=O)n([C@@H]2O[C@H](CO)[C@@H](O)[C@H]2O)c2nc(N)[nH]c(=O)c21	0.852
C[C@]12C=CC(=O)C=C1CC[C@@H]1C2=CC[C@]2(C)[C@@H](C(=O)CN3CCN(c4cc(N5CCCC5)nc(N5CCCC5)n4)CC3)CC[C@@H]12	0.948
Cc1ccc(/C(=C\CN2CCCC2)c2ccccn2)cc1 [Triprolidine hydrochloride]	0.899
Cc1ccc(/C(=C\CN2CCCC2)c2ccccn2)cc1 [trans-Triprolidine hydrochloride]	1.04
CC(C)(O/N=C(\C(=O)N[C@@H]1C(=O)N2C(C(=O)[O-])=C(C[n+]3ccccc3)CS[C@H]12)c1csc(N)n1)C(=O)O [Ceftazidime pentahydrate]	1.04
C=C1/C(=C\C=C2/CCC[C@]3(C)[C@@H]([C@H](C)CCCC(C)(C)O)CC[C@@H]23)C[C@@H](O)C[C@@H]1O [Calcitriol (Rocaltrol)]	1.16
C=C1/C(=C\C=C2/CCC[C@]3(C)[C@@H]([C@H](C)CCCC(C)(C)O)CC[C@@H]23)C[C@@H](O)C[C@@H]1O [1a,25-Dihydroxyvitamin D3]	1.09
Cc1c(Cl)cccc1Nc1ncccc1C(=O)O [Clonixin Lysinate]	1.01
OC[C@H]1O[C@@H](OCCc2ccc(O)cc2)[C@H](O)[C@@H](O)[C@@H]1O [Salidroside (Rhodioloside)]	1.05
CNCCC=C1c2ccccc2CCc2ccccc21 [Nortriptyline hydrochloride]	0.796
C[C@H]1[C@H](NC(=O)/C(=N\OC(C)(C)C(=O)O)c2csc(N)n2)C(=O)N1S(=O)(=O)O [Aztreonam (Azactam, Cayston)]	1.07
C[C@H]1[C@H](NC(=O)/C(=N\OC(C)(C)C(=O)O)c2csc(N)n2)C(=O)N1S(=O)(=O)O [Aztreonam]	1.04
CC1=C(/C=C/C(C)=C/C=C/C(C)=C/C(=O)O)C(C)(C)CCC1O (stereo not given) [4-Hydroxyretinoic acid]	1.06
Cc1ccc(C(=O)Nc2ccc(S(=O)(=O)O)c3cc(S(=O)(=O)O)cc(S(=O)(=O)O)c23)cc1NC(=O)c1cccc(NC(=O)Nc2cccc(C(=O)Nc3cc(C(=O)Nc4ccc(S(=O)(=O)O)c5cc(S(=O)(=O)O)cc(S(=O)(=O)O)c45)ccc3C)c2)c1 [Suramin hexasodium salt]	1.11
CCC(=O)[C@@]1(C)[C@H](C)C[C@H]2[C@@H]3CCC4=CC(=O)C=C[C@]4(C)[C@H]3[C@@H](O)C[C@@]21C [Rimexolone]	0.883
CCc1cc(C(N)=S)ccn1 [Ethionamide]	1
OCc1ccc(O[C@@H]2O[C@H](CO)[C@@H](O)[C@H](O)[C@H]2O)cc1 [Gastrodin (Gastrodine)]	0.854
Cn1cc(C2=C(c3ccc(Cl)cc3Cl)C(=O)NC2=O)c2ccccc21	1.24 and 1.21
CN(N=O)C(=O)N[C@@H](C=O)[C@@H](O)[C@H](O)[C@H](O)CO [Streptozocin]	1.01
CN(N=O)C(=O)N[C@@H](C=O)[C@@H](O)[C@H](O)[C@H](O)CO [Streptozotocin]	1.04
CN1CCN(C(c2ccccc2)c2ccc(Cl)cc2)CC1 (stereo not given) [Chlorcyclizine hydrochloride]	1.03
